Results on one substance are retold here after PMC6501013.

The chains behind the UniProt entries cited, without tags or fusion partners.
UniProt Q8CG47: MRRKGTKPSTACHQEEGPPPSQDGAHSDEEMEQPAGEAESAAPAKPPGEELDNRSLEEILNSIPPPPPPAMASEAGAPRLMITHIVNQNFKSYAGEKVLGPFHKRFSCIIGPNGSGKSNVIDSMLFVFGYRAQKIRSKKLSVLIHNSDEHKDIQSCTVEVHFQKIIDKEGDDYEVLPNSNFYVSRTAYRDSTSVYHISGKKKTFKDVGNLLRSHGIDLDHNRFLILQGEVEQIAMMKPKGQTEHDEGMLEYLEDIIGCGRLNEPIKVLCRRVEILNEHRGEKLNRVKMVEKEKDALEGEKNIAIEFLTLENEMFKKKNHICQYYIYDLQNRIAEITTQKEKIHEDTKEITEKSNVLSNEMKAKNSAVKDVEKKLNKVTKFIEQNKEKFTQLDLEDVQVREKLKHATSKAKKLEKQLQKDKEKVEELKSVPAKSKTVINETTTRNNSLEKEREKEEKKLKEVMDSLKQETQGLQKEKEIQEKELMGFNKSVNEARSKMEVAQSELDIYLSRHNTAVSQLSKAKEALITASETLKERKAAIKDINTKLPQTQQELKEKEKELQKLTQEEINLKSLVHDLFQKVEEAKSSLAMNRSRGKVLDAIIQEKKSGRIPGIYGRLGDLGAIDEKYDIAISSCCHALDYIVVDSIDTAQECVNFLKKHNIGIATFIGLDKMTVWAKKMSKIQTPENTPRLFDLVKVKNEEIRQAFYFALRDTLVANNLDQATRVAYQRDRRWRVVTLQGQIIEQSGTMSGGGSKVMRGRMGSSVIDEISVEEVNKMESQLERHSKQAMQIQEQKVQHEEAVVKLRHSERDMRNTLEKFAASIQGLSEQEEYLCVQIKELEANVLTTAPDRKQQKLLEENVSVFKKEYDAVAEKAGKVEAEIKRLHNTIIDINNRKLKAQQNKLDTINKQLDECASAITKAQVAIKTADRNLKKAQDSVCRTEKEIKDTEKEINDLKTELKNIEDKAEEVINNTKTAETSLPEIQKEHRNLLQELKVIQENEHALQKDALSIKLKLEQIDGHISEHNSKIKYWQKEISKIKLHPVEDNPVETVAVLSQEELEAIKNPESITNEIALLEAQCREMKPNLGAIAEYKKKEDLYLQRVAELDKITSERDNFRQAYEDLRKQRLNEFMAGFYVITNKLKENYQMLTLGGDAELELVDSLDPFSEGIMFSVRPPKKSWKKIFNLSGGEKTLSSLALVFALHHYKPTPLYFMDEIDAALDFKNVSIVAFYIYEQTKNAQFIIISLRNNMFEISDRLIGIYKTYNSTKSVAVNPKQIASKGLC
UniProt Q15021: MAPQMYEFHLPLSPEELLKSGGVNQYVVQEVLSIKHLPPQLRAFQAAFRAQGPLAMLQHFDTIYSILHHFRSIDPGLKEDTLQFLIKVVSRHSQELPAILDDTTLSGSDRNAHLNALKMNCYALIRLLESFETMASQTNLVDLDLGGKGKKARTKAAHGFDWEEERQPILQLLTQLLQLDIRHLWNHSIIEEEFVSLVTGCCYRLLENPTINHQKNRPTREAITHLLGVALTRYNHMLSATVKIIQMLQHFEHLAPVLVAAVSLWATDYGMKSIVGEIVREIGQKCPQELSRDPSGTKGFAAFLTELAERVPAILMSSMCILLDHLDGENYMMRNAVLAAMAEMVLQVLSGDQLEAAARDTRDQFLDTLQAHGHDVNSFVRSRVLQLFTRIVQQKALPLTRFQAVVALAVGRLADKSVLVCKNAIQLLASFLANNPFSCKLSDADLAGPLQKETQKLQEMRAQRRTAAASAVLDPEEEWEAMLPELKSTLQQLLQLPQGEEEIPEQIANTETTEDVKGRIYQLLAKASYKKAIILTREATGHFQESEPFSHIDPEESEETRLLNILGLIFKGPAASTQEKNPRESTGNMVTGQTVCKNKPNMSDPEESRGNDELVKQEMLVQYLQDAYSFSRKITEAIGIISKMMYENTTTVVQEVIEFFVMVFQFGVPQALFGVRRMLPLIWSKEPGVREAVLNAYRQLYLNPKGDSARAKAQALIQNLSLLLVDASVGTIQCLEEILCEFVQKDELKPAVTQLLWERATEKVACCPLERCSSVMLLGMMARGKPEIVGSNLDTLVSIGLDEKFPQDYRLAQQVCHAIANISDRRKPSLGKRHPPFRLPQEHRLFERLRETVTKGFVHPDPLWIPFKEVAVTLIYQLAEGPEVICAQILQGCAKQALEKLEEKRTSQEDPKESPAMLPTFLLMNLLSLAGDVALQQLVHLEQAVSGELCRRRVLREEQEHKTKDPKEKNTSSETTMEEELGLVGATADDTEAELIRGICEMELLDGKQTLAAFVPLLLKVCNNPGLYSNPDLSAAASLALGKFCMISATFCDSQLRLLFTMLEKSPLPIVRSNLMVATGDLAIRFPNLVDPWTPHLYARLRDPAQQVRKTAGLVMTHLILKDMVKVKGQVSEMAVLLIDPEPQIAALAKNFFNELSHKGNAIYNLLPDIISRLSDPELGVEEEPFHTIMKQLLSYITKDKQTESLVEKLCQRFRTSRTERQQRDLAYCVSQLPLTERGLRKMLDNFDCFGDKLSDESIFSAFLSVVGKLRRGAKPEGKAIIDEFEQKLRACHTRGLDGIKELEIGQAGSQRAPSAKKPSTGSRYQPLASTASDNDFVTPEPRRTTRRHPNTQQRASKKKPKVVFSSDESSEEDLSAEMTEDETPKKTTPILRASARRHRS

These are yes or no findings as the source states them, for the method shown. Binding seen in cells or lysates may run through a third protein. Some binding calls cover weakened binding; strength is not graded here.

The assay has as its target GST‐SMC4 (not stated (mammalian; printed as mSMC4)) (UniProt Q8CG47). The assay is described as follows: pull-down; five condensin I subunits co-expressed in insect cells (baculovirus); lysate on glutathione-agarose beads through GST-SMC4, released by proteolytic cleavage of GST; SDS-PAGE with CBB staining and immunoblotting.

For the substance CAP‐D2 (from UniProt Q15021 1-1401), the binding entry is “binds”.
